Several values for one entry are separate records, joined by “and”; a condition that tells them apart may be missing. Equal entries are not always repeated. For some assays here: HELM strings list residues between dots; [ac] is acetyl, [am] amide, other brackets name non-standard units. Square brackets hold non-standard residues; d marks the D form. * marks the point of attachment. Arg(NO2) = N=C(NCCC[C@H](N)C(=O)O)N[N+](=O)[O-]; Boc = CC(C)(C)OC(=O)*; OBn = c1ccc(CO*)cc1; Bn = c1ccc(C*)cc1; NHNH2 = NN*
How the values were obtained:
[1] = general procedure: hybrid (solid and solution phase) peptide synthesis; Boc-amino acid on 2% crosslinked Merrifield resin; 1% crosslinked p-methyl benzhydrylamine (MBHA) resin for octapeptide; DCCI; DCCI/HOBt for repeat couplings; azide method for fragment couplings; conditions: acetate (HOAc) salt
[2] = general procedure: hybrid (solid and solution phase) peptide synthesis; MBHA resin; DCCI; DCCI/HOBt for repeat couplings; azide method for fragment couplings; conditions: whole synthesis, scale 2 mmoles, acetate (HOAc) salt
[3] = late stage modification step, HPLC

Boc-ID(OBn)[Arg(NO2)]IG-OMe
purity (crude or final not stated) ([1]; coupling step, HPLC): HPLC 95% | step yield ([1]; coupling step): 94%

Boc-Arg-Ile-Asp-Arg-Ile-Gly-Ala-Gln-Ser-Gly-Leu-Gly-Cys(Acm)-Asn-Ser-Phe-Arg-Tyr-OH.3HOAc
final HPLC purity ([1]; coupling step, HPLC): 94% | step yield ([1]; coupling step): 71% yield

Boc-AQS(Bn)G-OMe
final HPLC purity ([1]; whole synthesis, HPLC): 94.6% | isolated yield ([1]; whole synthesis): 41% yield

Boc-Ala-Gln-Ser-Gly-Leu-Gly-Cys(Acm)-Asn-Ser-Phe-Arg-Tyr-NH2.HOAc
crude HPLC purity ([1]; coupling step, HPLC): 80.4%

(HCl) H-Ile-Asp(Bzl)-Arg(NO2)-Ile-Gly-OCH3
purity (crude or final not stated) [1, 3]: HPLC 97% | step yield ([1]; late stage modification step): 100% yield

Boc-Arg-Arg-Ser-Ser-Cys(Acm)-Phe-Gly-Gly-Arg-Ile-Asp-Arg-Ile-Gly-Ala-Gln-Ser-Gly-Leu-Gly-Cys(Acm)-Asn-Ser-Phe-Arg-Tyr-OH.6HOAc
final HPLC purity ([1]; coupling step, HPLC): 92% pure

Boc-Arg-Ile-Asp-Arg-Ile-Gly-Ala-Gln-Ser-Gly-Leu-Gly-Cys(Acm)-Asn-Ser-Phe-Arg-Tyr-NH2.5HOAc
final HPLC purity ([1]; coupling step, HPLC): 94%

Boc-AQSG-NHNH2
purity (crude or final not stated) [1, 3]: 94%

H.Leu-Gly-Cys(Acm)-Asn-Ser-Phe-Arg-Tyr-NH2.2HOAc
isolated mass [2]: 396 mg | isolated yield [2]: 14% | final HPLC purity ([1]; whole synthesis, HPLC): 98.7%

Boc-Ala-Gln-Ser-Gly-Leu-Gly-Cys(Acm)-Asn-Ser-Phe-Arg-Tyr-OH.HOAC
final HPLC purity ([1]; coupling step, HPLC): 97.1% | step yield ([1]; coupling step): 39%

Boc-Arg-Arg-Ser-Ser-Cys(Acm)-Phe-Gly-Gly-Ome.2HOAc
final purity (method not given) ([1]; whole synthesis, HPLC): 89% | final HPLC purity ([1]; whole synthesis, HPLC, run 1): 96% and 89% | crude mass ([1]; whole synthesis, scale 6 mm): 5.45 g | isolated mass ([1]; whole synthesis, scale 6 mm): 1.41 g | isolated yield ([1]; whole synthesis, scale 6 mm): 23%

Boc-AQSG-OMe
purity (crude or final not stated) [1, 3]: 94.5% | step yield ([1]; late stage modification step): 100%

Boc-Arg-Arg-Ser-Ser-Cys(Acm)Phe-Gly-Gly-NHNH2.2HOAc
final HPLC purity [1, 3]: 96% | purity (crude or final not stated) [1, 3]: 96%

Boc-Arg-Ile-Asp-Arg-Ile-Gly-NHNH2.2HOAc
step yield ([1]; late stage modification step): 100% yield

Boc-D(OBn)[Arg(NO2)]IG-OMe
purity (crude or final not stated) ([1]; coupling step, HPLC): HPLC 94% | step yield ([1]; coupling step): 89%

Boc-[Arg(NO2)]ID(OBn)[Arg(NO2)]IG-OMe
purity (crude or final not stated) ([1]; coupling step, HPLC): HPLC 96% | step yield ([1]; coupling step): 91% yield

(HCl) H-Asp(Bzl)-Arg(NO2)-Ile-Gly-OCH3
purity (crude or final not stated) [1, 3]: HPLC 96% | step yield ([1]; late stage modification step): 94%

PEPTIDE1{R.R.S.S.C.F.G.G.R.I.D.R.I.G.A.Q.S.G.L.G.C.N.S.F.R.Y}$PEPTIDE1,PEPTIDE1,5:R3-21:R3$$$V2.0
final HPLC purity ([1]; late stage modification step, HPLC, run 1): 100% (HPLC)

H.Ala-Gln-Ser-Gly-Leu-Gly-Acm(Cys)-Asn-Ser-Phe-Arg-Tyr-NH2 2HOAc salt
final HPLC purity [1, 3]: 96.7% | step yield ([1]; late stage modification step): 58.0%

PEPTIDE1{R.R.S.S.C.F.G.G.R.I.D.R.I.G.A.Q.S.G.L.G.C.N.S.F.R.Y.[am]}$PEPTIDE1,PEPTIDE1,5:R3-21:R3$$$V2.0
final HPLC purity [1, 3]: 97% | step yield ([1]; late stage modification step): 79.9%

H.Leu-Gly-Cys(Acm)-Asn-Ser-Phe-Arg-Tyr-OH.HOAc
final HPLC purity ([1]; whole synthesis, HPLC): 97.1% | isolated yield ([1]; whole synthesis): (37%)

Boc-Arg-Ile-Asp-Arg-Ile-Gly-OCH3.2HOAc
crude HPLC purity [1, 3]: HPLC 93% | final HPLC purity [1, 3]: HPLC 97.5% | step yield ([1]; late stage modification step, corr. for peptide content): 60% yield

H.Ala-Gln-Ser-Gly-Leu-Gly-Acm(Cys)-Asn-Ser-Phe-Arg-Tyr-OH 2HOAc salt
final HPLC purity [1, 3]: 99.3% | step yield ([1]; late stage modification step): 75.0%

(TFA) H-Arg-Ile-Asp-Arg-Ile-Gly-Ala-Gln-Ser-Gly-Leu-Gly-Cys(Acm)-Asn-Ser-Phe-Arg-Tyr-OH
crude HPLC purity [1, 3]: 90% | step yield ([1]; late stage modification step): 88% yield

Reference: patent US4607023 (dated 1986)
